The structures appear in SMILES notation.

Our source for the odour values is patent US20070264340A1, “Aromachemicals” (Flexitral, Inc., priority 2006, published 2007).

The data set in a line: odour profile.

On to `CC(C)=CCCC1(C)CC1CO` (racemic) [racemic mixture of the cis compounds, [2-methyl-2-(4-methylpent-3-en-1-yl)cyclopropyl]methanol], for which the odour result was “intense sweet rosy odour”.

Regarding `CC(C)=CCCC1(C)CC1CO` (racemic) [racemic mixture of the trans compounds, [2-methyl-2-(4-methylpent-3-en-1-yl)cyclopropyl]methanol], the odour result is given as “citrus odour with some rosy notes”.
